Values of other authors as cited in patent US20130122119A1, “PHYLLANTHUS AMARUS COMPOSITIONS AND METHOD OF EXTRACTING SAME” (NATREON, INC., priority 2011, published 2013).
At least one compound was matched to its structure with a doubt left.

What was measured:
[1] = tested on: hepatitis B surface antigen (HBsAg) secretion; conditions: non-cytotoxic concentration of 200 μg/ml
[2] = tested on: hepatitis B e-antigen (HBeAg) secretion; conditions: non-cytotoxic concentration of 200 μg/ml

Nc1ccn([C@@H]2CS[C@H](CO)O2)c(=O)n1 [Lamivudine]
inhibition of HBsAg secretion [1]: 33.5%
inhibition of HBeAg secretion [2]: 32.2%
